According to PMC6536566:
No constants are given. Whether binding was seen depends on the method and setting. For some assays here: Binding seen in cells or lysates may run through a third protein. Some entries that bind do so weakly or less than the wild type. For some assays here: Tags and fused reporters may be left off the sequences shown.

T1: VN-SAPK10 (rice (Oryza sativa)) (UniProt Q75H77)
T1 sequence: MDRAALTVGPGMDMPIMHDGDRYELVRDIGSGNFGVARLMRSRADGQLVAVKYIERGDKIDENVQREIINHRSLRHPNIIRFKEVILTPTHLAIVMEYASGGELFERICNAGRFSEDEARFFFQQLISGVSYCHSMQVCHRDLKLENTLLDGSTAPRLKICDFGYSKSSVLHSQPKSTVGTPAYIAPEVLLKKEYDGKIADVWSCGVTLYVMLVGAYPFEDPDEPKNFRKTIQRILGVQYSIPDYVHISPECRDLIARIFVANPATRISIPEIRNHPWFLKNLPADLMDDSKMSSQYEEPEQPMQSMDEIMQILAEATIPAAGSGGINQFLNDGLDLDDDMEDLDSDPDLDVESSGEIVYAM

T2: OsPP2C50-GFP (rice (Oryza sativa)) (UniProt Q6L5H6)
T2 sequence: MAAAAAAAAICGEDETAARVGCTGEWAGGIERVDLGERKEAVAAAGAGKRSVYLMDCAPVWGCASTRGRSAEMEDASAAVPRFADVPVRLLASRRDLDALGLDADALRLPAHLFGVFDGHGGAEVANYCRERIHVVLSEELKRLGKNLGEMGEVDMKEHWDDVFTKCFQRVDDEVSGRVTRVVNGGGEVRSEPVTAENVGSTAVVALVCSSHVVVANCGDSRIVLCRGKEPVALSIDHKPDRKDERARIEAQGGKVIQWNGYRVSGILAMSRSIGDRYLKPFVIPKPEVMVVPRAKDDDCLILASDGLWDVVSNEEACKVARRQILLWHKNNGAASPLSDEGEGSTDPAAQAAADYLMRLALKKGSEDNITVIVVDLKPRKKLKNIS

T3: OsPP2C53-GFP (rice (Oryza sativa)) (UniProt Q6L4R7)
T3 sequence: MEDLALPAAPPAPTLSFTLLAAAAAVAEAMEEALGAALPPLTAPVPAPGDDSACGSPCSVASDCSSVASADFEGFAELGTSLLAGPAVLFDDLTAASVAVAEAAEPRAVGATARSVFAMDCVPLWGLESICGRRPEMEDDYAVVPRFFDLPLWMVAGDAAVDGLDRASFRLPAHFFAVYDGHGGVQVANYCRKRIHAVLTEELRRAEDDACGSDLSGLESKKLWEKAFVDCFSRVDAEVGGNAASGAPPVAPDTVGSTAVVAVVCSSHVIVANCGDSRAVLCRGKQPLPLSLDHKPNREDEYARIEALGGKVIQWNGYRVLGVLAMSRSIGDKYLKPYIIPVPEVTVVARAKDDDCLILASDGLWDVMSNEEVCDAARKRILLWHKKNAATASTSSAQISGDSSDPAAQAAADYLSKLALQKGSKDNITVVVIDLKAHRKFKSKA

T4: BD-SAPK10 (rice (Oryza sativa)) (UniProt Q75H77)
T4 sequence: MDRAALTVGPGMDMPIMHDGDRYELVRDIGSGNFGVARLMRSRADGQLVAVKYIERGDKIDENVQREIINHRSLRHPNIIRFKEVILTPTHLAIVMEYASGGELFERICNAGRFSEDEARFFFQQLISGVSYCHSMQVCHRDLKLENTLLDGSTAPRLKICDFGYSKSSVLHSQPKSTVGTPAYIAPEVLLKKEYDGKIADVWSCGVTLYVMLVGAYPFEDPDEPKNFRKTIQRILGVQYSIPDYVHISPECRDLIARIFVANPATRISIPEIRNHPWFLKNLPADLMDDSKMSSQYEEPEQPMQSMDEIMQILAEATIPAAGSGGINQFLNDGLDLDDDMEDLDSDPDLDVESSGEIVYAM


How the values were obtained:
[1] = biological target: T1, VN-SAPK10 (rice (Oryza sativa)); test: split reporter; BiFC with Venus halves (VN, VC) co-expressed in rice protoplasts; confocal microscopy; ER-mCherry as internal control, Venus signal/mCherry signal
[2] = biological target: T2, OsPP2C50-GFP (rice (Oryza sativa)); test: co-IP; GFP fusion and Flag- or HA-tagged protein co-expressed in rice protoplasts; cellular extracts on GFP-trap beads, 4 °C, 2 h; 150 mM NaCl, 50 mM Tris-HCl pH 7.5, 0.5% NP40, 0.5% Triton X-100; immunoblot
[3] = biological target: T3, OsPP2C53-GFP (rice (Oryza sativa)); test: as above
[4] = biological target: T4, BD-SAPK10 (rice (Oryza sativa)); test: two-hybrid; Matchmaker GAL4 Two-Hybrid System 3, yeast AH109; BD-SAPK10 as bait (pGBKT7), AD fusions as prey (pGADT7); growth on SD without leucine, tryptophan and histidine, with 15 mM 3-AT

Row | Binder | binding [4] | also measured
1 | OsPP2C50-VC (protein, UniProt Q6L5H6 1-387) MAAAAAAAAICGEDETAARVGCTGEWAGGIERVDLGERKEAVAAAGAGKRSVYLMDCAPVWGCASTRGRSAEMEDASAAVPRFADVPVRLLASRRDLDALGLDADALRLPAHLFGVFDGHGGAEVANYCRERIHVVLSEELKRLGKNLGEMGEVDMKEHWDDVFTKCFQRVDDEVSGRVTRVVNGGGEVRSEPVTAENVGSTAVVALVCSSHVVVANCGDSRIVLCRGKEPVALSIDHKPDRKDERARIEAQGGKVIQWNGYRVSGILAMSRSIGDRYLKPFVIPKPEVMVVPRAKDDDCLILASDGLWDVVSNEEACKVARRQILLWHKNNGAASPLSDEGEGSTDPAAQAAADYLMRLALKKGSEDNITVIVVDLKPRKKLKNIS | – | binding [1]: binds
2 | SAPK10-Flag (protein, UniProt Q75H77 1-362) MDRAALTVGPGMDMPIMHDGDRYELVRDIGSGNFGVARLMRSRADGQLVAVKYIERGDKIDENVQREIINHRSLRHPNIIRFKEVILTPTHLAIVMEYASGGELFERICNAGRFSEDEARFFFQQLISGVSYCHSMQVCHRDLKLENTLLDGSTAPRLKICDFGYSKSSVLHSQPKSTVGTPAYIAPEVLLKKEYDGKIADVWSCGVTLYVMLVGAYPFEDPDEPKNFRKTIQRILGVQYSIPDYVHISPECRDLIARIFVANPATRISIPEIRNHPWFLKNLPADLMDDSKMSSQYEEPEQPMQSMDEIMQILAEATIPAAGSGGINQFLNDGLDLDDDMEDLDSDPDLDVESSGEIVYAM | – | binding [2]: binds; binding [3]: binds
3 | AD-OsPP2C06 (protein, UniProt Q0JLP9 1-467) MEDVAVAAALAPAPATAPVFSPAAAGLTLIAAAAADPIAAVVAGAMDGVVTVPPVRTASAVEDDAVAPGRGEEGGEASAVGSPCSVTSDCSSVASADFEGVGLGFFGAAADGGAAMVFEDSAASAATVEAEARVAAGARSVFAVECVPLWGHKSICGRRPEMEDAVVAVSRFFDIPLWMLTGNSVVDGLDPMSFRLPAHFFGVYDGHGGAQVANYCRERLHAALVEELSRIEGSVSGANLGSVEFKKKWEQAFVDCFSRVDEEVGGNASRGEAVAPETVGSTAVVAVICSSHIIVANCGDSRAVLCRGKQPVPLSVDHKPNREDEYARIEAEGGKVIQWNGYRVFGVLAMSRSIGDRYLKPWIIPVPEITIVPRAKDDECLVLASDGLWDVMSNEEVCDVARKRILLWHKKNGTNPASAPRSGDSSDPAAEAAAECLSKLALQKGSKDNISVIVVDLKAHRKFKSKS | binds | –
4 | AD-OsPP2C50 (protein, UniProt Q6L5H6 1-387) MAAAAAAAAICGEDETAARVGCTGEWAGGIERVDLGERKEAVAAAGAGKRSVYLMDCAPVWGCASTRGRSAEMEDASAAVPRFADVPVRLLASRRDLDALGLDADALRLPAHLFGVFDGHGGAEVANYCRERIHVVLSEELKRLGKNLGEMGEVDMKEHWDDVFTKCFQRVDDEVSGRVTRVVNGGGEVRSEPVTAENVGSTAVVALVCSSHVVVANCGDSRIVLCRGKEPVALSIDHKPDRKDERARIEAQGGKVIQWNGYRVSGILAMSRSIGDRYLKPFVIPKPEVMVVPRAKDDDCLILASDGLWDVVSNEEACKVARRQILLWHKNNGAASPLSDEGEGSTDPAAQAAADYLMRLALKKGSEDNITVIVVDLKPRKKLKNIS | binds | –
5 | AD-OsPP2C53 (protein, UniProt Q6L4R7 1-445) MEDLALPAAPPAPTLSFTLLAAAAAVAEAMEEALGAALPPLTAPVPAPGDDSACGSPCSVASDCSSVASADFEGFAELGTSLLAGPAVLFDDLTAASVAVAEAAEPRAVGATARSVFAMDCVPLWGLESICGRRPEMEDDYAVVPRFFDLPLWMVAGDAAVDGLDRASFRLPAHFFAVYDGHGGVQVANYCRKRIHAVLTEELRRAEDDACGSDLSGLESKKLWEKAFVDCFSRVDAEVGGNAASGAPPVAPDTVGSTAVVAVVCSSHVIVANCGDSRAVLCRGKQPLPLSLDHKPNREDEYARIEALGGKVIQWNGYRVLGVLAMSRSIGDKYLKPYIIPVPEVTVVARAKDDDCLILASDGLWDVMSNEEVCDAARKRILLWHKKNAATASTSSAQISGDSSDPAAQAAADYLSKLALQKGSKDNITVVVIDLKAHRKFKSKA | binds | –
6 | AD-OsPP2C09 (protein, UniProt Q5N9N2 1-414) MAEICCEEAMSPPATATAAVAAAVSASAAAAVSSAIDRRRRRMEMRRIRIASDLELQAGEDGRPGKRQRLARTASGAPRPDEDSASERPSCGRTEEFPRYGVTAVCGRRREMEDAVSIRPDFLPASGKFHFYGVFDGHGCSHVATTCQDRMHEIVAEEHNKGASGEVAPWRDVMEKSFARMDGEVGNRASTRSDDEPACPCEQQTPSRRDHAGSTAVVAVVSPTQVVVANAGDSRAVISRAGVPVALSVDHKPDRPDELERIEAAGGRVIYWDGARVLGVLAMSRAIGDGYLKPYVTSEPEVTVTERTDDDECLILASDGLWDVVTNEMACEVVRACFHNNGPPAPAARPSGVPSSAEAAETENGGAASVKGISKAESSDKACSDAAMLLTKLALARRSADNVSVVVVDLRRGL | binds | –
7 | OsPP2C53-VC (protein, UniProt Q6L4R7 1-445) MEDLALPAAPPAPTLSFTLLAAAAAVAEAMEEALGAALPPLTAPVPAPGDDSACGSPCSVASDCSSVASADFEGFAELGTSLLAGPAVLFDDLTAASVAVAEAAEPRAVGATARSVFAMDCVPLWGLESICGRRPEMEDDYAVVPRFFDLPLWMVAGDAAVDGLDRASFRLPAHFFAVYDGHGGVQVANYCRKRIHAVLTEELRRAEDDACGSDLSGLESKKLWEKAFVDCFSRVDAEVGGNAASGAPPVAPDTVGSTAVVAVVCSSHVIVANCGDSRAVLCRGKQPLPLSLDHKPNREDEYARIEALGGKVIQWNGYRVLGVLAMSRSIGDKYLKPYIIPVPEVTVVARAKDDDCLILASDGLWDVMSNEEVCDAARKRILLWHKKNAATASTSSAQISGDSSDPAAQAAADYLSKLALQKGSKDNITVVVIDLKAHRKFKSKA | – | binding [1]: binds
